From PubChem BioAssay AID504648 (National Center for Advancing Translational Sciences (NCATS), 2011)
Screen size: about 390,000 compounds; about 610 (0.16%) were called active. This list was built around the results that the source calls inconclusive (neither active nor inactive); the mix of calls is not that of the screen. The call rests on the fitted dose curve; in most records, active means well fitted inhibition curve with a large enough effect; inconclusive means small, poorly fitted or top-dose-only effect, or effect the other way, or another doubt; inactive means no such curve, though single readings can be large or run the other way. Potencies of inconclusive entries are doubtful fits and often do not repeat.

Experiment: Nrf2 qHTS screen for inhibitors: counterscreen for cytotoxicity
Settings: A549 ARE-Fluc cells, CellTiter-Fluor viability, 18-24 h; activity change, negative = cytotoxicity: at 46 µM (top of the series)
Method in brief: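 A549 ARE_Fluc cells in 5% FBS OPTI-MEM were exposed to compounds in concentration-response for 18-24 h at 37 deg C. Viability was read by CellTiter-Fluor fluorescence (Ex 405/Em 525) after 30 min, before the luciferase read.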
On the % scale 0 is the no-effect control and ±100 the full control effect; potency means the concentration at half of the fitted maximal effect.

| Structure (SMILES) | Potency | activity change, negative = cytotoxicity |
| --- | --- | --- |
| COc1ccc(C(=O)N2N=C(c3cccs3)CC2c2ccccc2O)cc1 (stereo unspecified) | inconclusive: 29.1 µM [falling, partial curve, poor fit] | – |
| COc1ccc(-c2nc(SCC(=O)NCc3ccco3)c(-c3ccccc3)[nH]2)cc1OC | – | inactive: -5.76% |
| FC(F)Oc1ccc(NC(=S)N2CCN(Cc3ccccc3)CC2)cc1 | – | inactive: 16.1% |
| CC(C)(C)Nc1nc(SCc2ccccc2)nc(N2CCOCC2)n1 | inconclusive: 29.1 µM [falling, single point] | – |
| COc1ccc(N(C)C(=O)c2oc(=O)c3ccccc3c2-c2ccccc2)c(OC)c1 | inconclusive: 25.9 µM [activator, partial curve, poor fit] | – |
| COc1cc(-c2onc3ccc(Br)cc23)cc(OC)c1OC | inconclusive: 6.51 µM [falling, partial curve, poor fit] | – |
| CCOC(=O)C1CCCN(C2=NC(=O)/C(=C/c3ccc(N(C)C)cc3)S2)C1 (stereo unspecified) | inconclusive: 16.4 µM [falling, partial curve, poor fit] | – |
| Cc1nn(-c2cc(N3CCCCCC3)ccc2[N+](=O)[O-])c(=O)c2ccccc12 | inconclusive: 32.6 µM [falling, partial curve, poor fit] | – |
| Cc1cc2[nH]c3ccccc3c2c(C)n1 | inconclusive: 29.1 µM [falling, single point] | – |
| Cc1c(N/N=C(\C#N)C(=O)c2ccc(Cl)cc2)c(=O)n(-c2ccccc2)n1C | inconclusive: 18.4 µM [falling, partial curve, poor fit] | – |
| CCc1ccc(Nc2cc(C(=O)NCCCN3CCOCC3)c3ccccc3n2)cc1 | inconclusive: 29.1 µM [falling, partial curve, poor fit] | – |
| CCc1ccc(S(=O)(=O)Nc2cccc(C3OCCCO3)c2)cc1 | – | inactive: -1.79% |
| CC(=O)c1ccc(OC(=O)c2c(-c3ccccc3Cl)noc2C)cc1 | – | inactive: 10.2% |
| CCOC(=O)Sc1nc2ncncc2[nH]1 | – | inactive: 1.79% |
| N#Cc1ccc(NC(=O)COCc2cc(-c3ccc(F)cc3)on2)cc1 | – | inactive: -4.1% |
| CN1C(=O)c2cccc3c(S(=O)(=O)N(C)C)ccc1c23 | inconclusive: 32.6 µM [activator, partial curve, poor fit] | – |
| CC(C)OCCCn1c(=N)c(C(N)=S)cc2c(=O)n3ccccc3nc21 | inconclusive: 3.66 µM [activator, full curve] | – |
| COc1ccc(-c2nnc(SCc3nnc(-c4ccc(Cl)cc4)o3)n2-c2ccccc2)cc1 | inconclusive: 18.4 µM [falling, single point] | – |
| CC(CCc1ccc(O)cc1)NC(c1ccccc1)c1ccc(Cl)cc1 (stereo unspecified) | inconclusive: 29.1 µM [falling, single point] | – |
| COc1ccc(S(=O)(=O)Nc2ccc3c(c2)C(=O)N([C@@H](C)CO)C[C@H](C)[C@H](CN(C)S(=O)(=O)c2ccc(F)cc2)O3)cc1 | – | inactive: -8.03% |
| Cc1cccc(CCNC(=O)c2nc(-c3ccc(Cl)cc3)n3c2CCCCC3)c1 | – | inactive: -14.7% |

Two entries drawn at random from those above, as already listed:

| Structure (SMILES) | Potency | activity change, negative = cytotoxicity |
| --- | --- | --- |
| COc1ccc(C(=O)N2N=C(c3cccs3)CC2c2ccccc2O)cc1 (stereo unspecified) | inconclusive: 29.1 µM [falling, partial curve, poor fit] | – |
| Cc1nn(-c2cc(N3CCCCCC3)ccc2[N+](=O)[O-])c(=O)c2ccccc12 | inconclusive: 32.6 µM [falling, partial curve, poor fit] | – |

Following part.

| Structure (SMILES) | Potency | activity change, negative = cytotoxicity |
| --- | --- | --- |
| COc1ccc(CN(Cc2ccccc2)C(C)=O)cc1COc1ccc(NC(C)=O)cc1 | – | inactive: -6.64% |
| Cc1ccccc1NC(=O)c1ccc(OCC(=O)Nc2ccccc2F)cc1 | inconclusive: 25.9 µM [activator, partial curve, poor fit] | – |
| N#CC(=C1C=CC(=NO)C(Cl)=C1)c1ccc(Cl)cc1 | – | inactive: -2.85% |
| N[C@@H](Cc1ccccc1)C(=O)N1CCC(C(=O)N[C@@H](CCC(=O)O)C(=O)O)CC1 | inconclusive: 10.3 µM [activator, partial curve, poor fit] | – |
| CCOc1ccc(CNS(=O)(=O)c2cc(-c3cc(C)no3)ccc2C)cc1OC | – | inactive: -1.02% |
| COc1ccc(-c2nc(NC(=O)c3ccc(OCC(=O)Nc4ccc(F)cc4)c(OC)c3)sc2C)cc1 | inconclusive: 23.1 µM [falling, single point] | – |
| CSc1ccc(S(=O)(=O)NCc2ccccc2Cl)cc1 | inconclusive: 35.5 µM [activator, single point] | – |
| Cc1cc(O)c(C(C)C)cc1C1(c2cc(C(C)C)c(O)cc2C)OC(=O)c2ccccc21 | inconclusive: 29.1 µM [falling, single point] | – |
| O=C1C=C(Nc2ccccc2)C(=O)c2ccccc21 | inconclusive: 20.6 µM [falling, single point] | – |
| CC(C)NC(=O)N(C)C[C@H]1Oc2c(NC(=O)Nc3ccc(C(F)(F)F)cc3)cccc2C(=O)N([C@H](C)CO)C[C@@H]1C | inconclusive: 29.1 µM [falling, single point] | – |
| Cc1cccc(C)c1NC(=O)CS(=O)CC(=O)NC1CCCc2ccccc21 (stereo unspecified) | inconclusive: 32.6 µM [activator, partial curve, poor fit] | – |
| COc1cnc(-c2ccccc2)nc1Oc1ccc(C(C)(C)C)cc1 | inconclusive: 18.4 µM [activator, partial curve, poor fit] | – |
| Cc1cccc(-c2nc(SCC(=O)Nc3ccc4c(c3)OCO4)c(-c3ccccc3)[nH]2)c1 | inconclusive: 32.6 µM [falling, partial curve, poor fit] | – |
| COc1ccc2c(c1OC)C(=O)N1c3ccccc3C(=O)N(c3ccccc3F)C21 (stereo unspecified) | inconclusive: 1.3 µM [falling, partial curve, poor fit] | – |
| FC(F)(F)c1nc2ccccc2n2c(-c3ccc(Cl)cc3)nnc12 | active: 5.8 µM | – |
| CN1/C(=C\C(=O)COC(=O)c2ccc(O)c(O)c2)C(C)(C)c2ccccc21 | inconclusive: 29.1 µM [falling, single point] | – |
| NS(=O)(=O)c1ccc(CCNCc2ccccc2OCc2ccc(Cl)cc2)cc1 | – | inactive: -11.1% |
| COc1ccc(CCNC(=O)COc2ccc(S(=O)(=O)NC3CCCCC3)cc2Cl)cc1 | inconclusive: 29.1 µM [falling, single point] | – |
| CCOC(=O)CNC(=O)CN1CCC(c2nc3ccccc3[nH]2)CC1 | inconclusive: 29.1 µM [activator, partial curve, poor fit] | – |
| Cc1ccc2nc(-c3ccncc3)cc(C(=O)Nc3ccc4c(c3)OCCO4)c2c1 | inconclusive: 32.6 µM [falling, partial curve, poor fit] | – |
